According to paper PMC12048567:
Results are given in words; binding and its absence hold for the method and conditions named. In cells and extracts the contact can be indirect. For some of these results: Binding can be weak; no strength is given. For some of these results: Tags and fused reporters may be left off the sequences shown.

The chains behind the UniProt entries cited, without tags or fusion partners. Where a name states a change or a piece, a line headed by the entry shows the natural chain unless it says otherwise.
UniProt Q0DNU1: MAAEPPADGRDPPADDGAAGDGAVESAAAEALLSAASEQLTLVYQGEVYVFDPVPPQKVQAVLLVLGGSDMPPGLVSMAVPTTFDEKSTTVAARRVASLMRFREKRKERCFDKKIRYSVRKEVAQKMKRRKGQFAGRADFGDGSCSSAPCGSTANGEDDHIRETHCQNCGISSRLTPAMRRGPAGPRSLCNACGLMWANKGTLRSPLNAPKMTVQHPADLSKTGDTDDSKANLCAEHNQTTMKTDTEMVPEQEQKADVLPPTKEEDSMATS
UniProt Q336P5: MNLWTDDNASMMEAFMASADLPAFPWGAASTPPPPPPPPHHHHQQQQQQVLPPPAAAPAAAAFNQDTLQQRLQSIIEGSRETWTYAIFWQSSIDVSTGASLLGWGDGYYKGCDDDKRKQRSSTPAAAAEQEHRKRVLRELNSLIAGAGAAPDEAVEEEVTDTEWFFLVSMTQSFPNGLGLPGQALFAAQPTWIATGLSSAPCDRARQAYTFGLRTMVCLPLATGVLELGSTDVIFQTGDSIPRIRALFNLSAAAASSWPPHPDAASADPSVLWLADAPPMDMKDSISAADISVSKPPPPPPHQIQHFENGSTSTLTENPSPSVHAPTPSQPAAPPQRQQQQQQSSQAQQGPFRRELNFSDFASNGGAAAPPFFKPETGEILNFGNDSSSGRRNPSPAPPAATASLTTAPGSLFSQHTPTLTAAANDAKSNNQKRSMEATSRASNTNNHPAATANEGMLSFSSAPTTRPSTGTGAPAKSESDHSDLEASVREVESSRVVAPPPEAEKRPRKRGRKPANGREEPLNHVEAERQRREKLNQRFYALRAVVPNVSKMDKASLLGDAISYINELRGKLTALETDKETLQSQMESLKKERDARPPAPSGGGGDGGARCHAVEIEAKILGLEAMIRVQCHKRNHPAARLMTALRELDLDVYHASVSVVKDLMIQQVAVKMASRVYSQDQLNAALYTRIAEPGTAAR

Key:
[1] = biological target: GATA19-V5 (rice) (UniProt Q0DNU1); test: co-IP; anti-V5 monoclonal antibody on Dynabeads Protein G; 1:1 combination of cell-free expressed GATA19-V5 with MYC2-Flag, 2 h at 4 °C; Western blot
[2] = biological target: T1, JAZ1-His (rice) (UniProt Q7XPM8); test: co-IP; anti-His monoclonal antibody on Dynabeads Protein G; 1:1 mixture of cell-free expressed JAZ1-His/JAZ8-His/JAZ10-His and GATA19-V5, 2 h at 4 °C; mouse IgG as negative control; Western blot
T1 sequence: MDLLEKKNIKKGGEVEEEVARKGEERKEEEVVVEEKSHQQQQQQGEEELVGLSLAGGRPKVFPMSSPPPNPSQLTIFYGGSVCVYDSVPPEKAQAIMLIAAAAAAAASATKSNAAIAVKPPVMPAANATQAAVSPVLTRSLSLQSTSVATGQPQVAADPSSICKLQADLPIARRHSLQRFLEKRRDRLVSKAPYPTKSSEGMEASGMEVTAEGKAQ

[3] = biological target: T2, JAZ8-His (rice) (UniProt Q69P94); test: as above
T2 sequence: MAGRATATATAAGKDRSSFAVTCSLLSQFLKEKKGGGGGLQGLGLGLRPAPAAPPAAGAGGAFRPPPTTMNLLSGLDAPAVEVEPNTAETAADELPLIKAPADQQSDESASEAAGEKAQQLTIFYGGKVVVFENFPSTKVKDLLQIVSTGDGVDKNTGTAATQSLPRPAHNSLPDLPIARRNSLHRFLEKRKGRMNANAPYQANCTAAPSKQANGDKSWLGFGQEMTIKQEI

[4] = biological target: T3, JAZ1-YC (rice) (UniProt Q7XPM8); test: split reporter; BiFC of JAZ1-YC with GATA19-YN in Nicotiana benthamiana epidermal cells after agroinfiltration; YFP fluorescence by confocal microscopy
T3 sequence: T1 sequence

In the case of MYC2-Flag (from UniProt Q336P5 1-699), the binding [1] is reported as “no binding”.
For GATA19-V5 (from UniProt Q0DNU1), the binding [2] was “binds” and the binding [3] was “no binding”.
In the case of GATA19-YN (rice), the binding [4] is reported as “binds”.
